Measurements reported in PubChem BioAssay AID504784 (Drosophila RNAi Screening Center, 2011)

Aim: 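Fly genes whose silencing alters how much lipid cells keep in droplets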 (primary screen)
System: Drosophila Kc167 embryonic cells
Reagents: long dsRNA against Drosophila genes, about 250 ng dsRNA per well
Time to read-out: 4 days
Conditions: cells fed 400 µM oleic acid bound to BSA
Detection: 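Microscope images give a droplet-to-nucleus area ratio, taken as log and converted to a screen-wide B-score; higher values mean greater lipid storage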
Scale: droplet/nuclear area B-score: higher = more stored lipid (overstorage)
The deposit covers about 17,000 reagents; this is a random part of those with a known target gene and a result. 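Each column is one replicate's B-score; the combined score over replicates was not deposited, so single values may mislead.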 Names joined by + are all predicted targets of the reagent. Not all columns of the deposit are shown.

| gene | DRSC id | droplet/nuclear area B-score, replicate 1 | droplet/nuclear area B-score, replicate 2 |
| --- | --- | --- | --- |
| Ugt303B1 | DRSC15141 | 0.0287 | -1.37 |
| CG18210 (retired record) | DRSC19795 | 1.3 | -0.36 |
| CG10764 | DRSC06000 | -1.59 | 0.43 |
| CG33467 | DRSC05525 | -0.658 | 0.154 |
| CG33467 | DRSC22651 | 0.67 | 0.536 |
| Lsp1alpha | DRSC20258 | -1.57 | 0.526 |
| CG1824 | DRSC19796 | 1.07 | -0.146 |
| CG15710 | DRSC06581 | 1.42 | -0.693 |
| Srg2 + CG42826 | DRSC10681 | 4.43 | -0.296 |
| Srg2 + CG42826 | DRSC10682 | 0.0993 | 1.03 |
| CG15771 | DRSC18077 | 3.67 | -0.229 |
| clos | DRSC06240 | -0.781 | -0.984 |
| clos | DRSC06241 | 0.00267 | 1.52 |
| clos | DRSC06778 | -0.903 | -1.36 |
| clos | DRSC21857 | 0.834 | 0.81 |
| clos | DRSC22942 | -0.608 | -0.607 |
| CG4884 | DRSC15671 | 1.77 | -2.46 |
| CG2865 | DRSC18527 | -1.06 | -0.00339 |
| CG2865 | DRSC18528 | 0.138 | -0.0311 |
| CG12679 | DRSC20493 | 0.993 | -1.09 |
| l(2)34Fc | DRSC01910 | 2.82 | -0.612 |
| CG30287 | DRSC03875 | 2.15 | 1.53 |
| atms | DRSC12310 | -2.78 | -2.3 |
| CG42674 | DRSC10066 | -0.547 | -0.0122 |
| CG42674 | DRSC10067 | -0.714 | 0.158 |
| CG42674 | DRSC10811 | -1.5 | 0.778 |
| Pcmt | DRSC12363 | -0.851 | -0.0616 |
| tmod | DRSC14314 | 0.546 | 0.254 |
| tmod | DRSC15076 | -0.188 | 1.29 |
| tmod | DRSC17062 | -1.19 | 1.02 |
| CG4338 | DRSC15564 | -0.812 | – |
| CG13043 | DRSC09924 | -2.06 | -1.28 |
| wat | DRSC14854 | 0.48 | -1.12 |
| CG17834 | DRSC02637 | 1.47 | 1.99 |
| Tob | DRSC20294 | -0.204 | -1.53 |
| CaMKII | DRSC17214 | -0.323 | -0.00339 |
| spz5 | DRSC08645 | 0.528 | -0.791 |
| eIF3b | DRSC06900 | 0.986 | 0.868 |
| fidipidine | DRSC07618 | -0.0707 | -0.951 |
| CG14631 | DRSC17792 | -0.519 | 1.19 |
| CG14631 | DRSC17941 | -0.459 | 0.00698 |
| CG32806 | DRSC21699 | 1.1 | 1.01 |
| Cyp49a1 | DRSC06737 | -0.841 | -1.76 |
| Cyp49a1 | DRSC07367 | -0.351 | -0.883 |
| CG3632 | DRSC19871 | 1.13 | -0.927 |
| TwdlG | DRSC12229 | 0.318 | 0.0577 |
| me31B | DRSC03569 | 1.61 | -0.394 |
| CG33454 | DRSC22914 | 1.98 | -0.155 |
| Sur | DRSC03447 | -0.461 | -0.428 |
| CG1888 | DRSC06797 | -1.65 | -0.832 |
| Cul2 | DRSC03710 | – | 0.519 |
